Results deposited as PubChem BioAssay AID1259424 (University of Nebraska Medical Center, 2018).
The whole screen tested about 14,000 reagents; shown is a part drawn at random. 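Higher correlation or smaller distance means closer resemblance to KSR1 loss; control wells, including KSR1 knockdowns, recur on many plates.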 Some reagents were tested in more than one well and are listed for each. Not stated in the record: the time to read-out.

Aim: 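Seek colon cancer survival genes behaving like KSR1, using a six-gene signature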 (primary screen)
Cells: human HCT116 colon cancer cells
Reagent: siRNA pool against human genes, 50 nM
Read-out: 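Six signature mRNAs by branched-DNA multiplex assay, scaled to two housekeeping genes and non-targeting median, log2; matched to mean KSR1 knockdown profile by Pearson correlation and euclidean distance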
Direction: mean correlation with KSR1 profile and KSR1 correlation: higher = expression change more like KSR1 knockdown; mean distance from KSR1 profile: higher = expression change less like KSR1 knockdown

| Gene | mean correlation with KSR1 profile | mean distance from KSR1 profile | KSR1 correlation, replicate 1 | KSR1 correlation, replicate 2 | KSR1 correlation, replicate 3 |
| --- | --- | --- | --- | --- | --- |
| CLCNKA (GeneID 1187) | -0.723 | 2.16 | -0.816 | -0.692 | -0.516 |
| WDR6 (GeneID 11180) | 0.0258 | 2.38 | -0.0841 | 0.0391 | 0.485 |
| CX3CR1 (GeneID 1524) | 0.712 | 2.15 | 0.812 | 0.649 | 0.521 |
| LCE3D (GeneID 84648) | 0.0399 | 3.47 | 0.128 | -0.0166 | -0.248 |
| MRPS22 (GeneID 56945) | 0.168 | 1.99 | -0.0133 | 0.374 | 0.0992 |
| ADO (GeneID 84890) | 0.859 | 0.863 | 0.621 | 0.748 | 0.831 |
| STRN3 (GeneID 29966) | -0.229 | 2.09 | -0.453 | -0.55 | -0.404 |
| PVALB (GeneID 5816) | -0.258 | 2.6 | -0.149 | -0.303 | -0.324 |
| SLC25A11 (GeneID 8402) | -0.202 | 2.83 | -0.504 | -0.0344 | -0.0242 |
| PMF1 (GeneID 11243) | -0.454 | 1.42 | -0.103 | -0.588 | -0.535 |
| DDHD2 (GeneID 23259) | -0.418 | 2.54 | -0.455 | -0.495 | -0.127 |
| ERGIC3 (GeneID 51614) | 0.208 | 2.55 | 0.485 | 0.212 | 0.148 |
| CPED1 (GeneID 79974) | 0.221 | 1.55 | 0.309 | 0.508 | -0.05 |
| PFDN2 (GeneID 5202) | -0.663 | 2.61 | -0.619 | -0.712 | -0.633 |
| ISG20 (GeneID 3669) | 0.531 | 1.92 | 0.534 | 0.51 | 0.493 |
| UBN1 (GeneID 29855) | -0.612 | 1.8 | -0.602 | -0.411 | -0.442 |

Taken from above:
CX3CR1 (GeneID 1524), mean distance from KSR1 profile: 2.15
Under “KSR1 correlation, replicate 2”, ADO (GeneID 84890) is entered as 0.748
ERGIC3 (GeneID 51614), mean distance from KSR1 profile: 2.55
Result for SLC25A11 (GeneID 8402) under “mean distance from KSR1 profile”: 2.83
Result for ISG20 (GeneID 3669) under “KSR1 correlation, replicate 3”: 0.493

The list goes on:
| Gene | mean correlation with KSR1 profile | mean distance from KSR1 profile | KSR1 correlation, replicate 1 | KSR1 correlation, replicate 2 | KSR1 correlation, replicate 3 |
| --- | --- | --- | --- | --- | --- |
| MPV17L2 (GeneID 84769) | 0.764 | 2.05 | 0.706 | 0.778 | 0.664 |
| ISLR2 (GeneID 57611) | -0.409 | 1.74 | -0.633 | -0.288 | -0.146 |
| NPLOC4 (GeneID 55666) | -0.713 | 2.17 | -0.552 | -0.515 | -0.587 |
| PLGRKT (GeneID 55848) | 0.156 | 1.89 | -0.121 | 0.00247 | 0.374 |
| KDM3B (GeneID 51780) | -0.423 | 2.76 | -0.385 | -0.428 | -0.546 |
| ACSL6 (GeneID 23305) | 0.184 | 1 | 0.44 | 0.362 | 0.0507 |
| ACSL6 (GeneID 23305) | 0.0974 | 2.32 | -0.0957 | 0.262 | 0.421 |
| ABHD17C (GeneID 58489) | -0.472 | 2.96 | -0.723 | -0.365 | 0.12 |
| SSTR2 (GeneID 6752) | 0.0817 | 3.26 | 0.0707 | 0.138 | 0.148 |
| SLC17A1 (GeneID 6568) | 0.0861 | 1.21 | -0.0848 | 0.216 | 0.377 |
| MN1 (GeneID 4330) | -0.676 | 1.88 | -0.619 | -0.812 | 0.000561 |
| BTAF1 (GeneID 9044) | 0.587 | 1.58 | 0.631 | 0.437 | 0.689 |
| NRL (GeneID 4901) | 0.417 | 2.14 | 0.413 | 0.346 | 0.492 |
| CTDSP1 (GeneID 58190) | -0.239 | 1.23 | -0.0751 | -0.393 | -0.109 |
| ARSJ (GeneID 79642) | 0.752 | 1.61 | 0.789 | 0.719 | 0.799 |
| GP6 (GeneID 51206) | 0.28 | 1.51 | 0.323 | 0.233 | 0.363 |
| BCAR3 (GeneID 8412) | 0.423 | 1.16 | 0.377 | 0.551 | 0.227 |
| SLC2A4RG (GeneID 56731) | -0.647 | 3.04 | -0.544 | -0.583 | -0.68 |
